Data: article PMC8956508
Results are given in words; binding and its absence hold for the method and conditions named. In cells and extracts the contact can be indirect. Some results given as binding are weak or reduced against the parent protein; the word gives no strength.

The chains behind the UniProt entries cited, without tags or fusion partners.
UniProt P15884: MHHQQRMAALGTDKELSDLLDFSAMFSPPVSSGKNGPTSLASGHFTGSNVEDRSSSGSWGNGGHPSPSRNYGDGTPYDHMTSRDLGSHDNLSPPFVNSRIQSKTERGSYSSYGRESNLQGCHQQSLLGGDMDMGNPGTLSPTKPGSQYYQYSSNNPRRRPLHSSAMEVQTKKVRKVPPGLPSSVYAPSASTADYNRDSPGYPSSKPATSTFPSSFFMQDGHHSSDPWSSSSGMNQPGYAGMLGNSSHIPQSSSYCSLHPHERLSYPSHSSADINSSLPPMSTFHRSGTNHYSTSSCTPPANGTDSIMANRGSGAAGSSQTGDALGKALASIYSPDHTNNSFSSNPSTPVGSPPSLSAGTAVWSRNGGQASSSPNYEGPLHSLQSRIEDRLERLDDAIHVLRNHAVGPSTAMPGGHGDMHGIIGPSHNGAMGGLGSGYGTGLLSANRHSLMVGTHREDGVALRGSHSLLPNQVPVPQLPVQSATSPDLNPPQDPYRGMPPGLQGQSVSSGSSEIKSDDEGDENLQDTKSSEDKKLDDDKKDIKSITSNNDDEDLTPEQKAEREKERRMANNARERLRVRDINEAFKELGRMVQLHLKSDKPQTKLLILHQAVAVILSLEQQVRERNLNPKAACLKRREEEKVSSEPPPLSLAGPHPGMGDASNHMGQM

Tests used:
[1] = biological target: T1, DUSP6 (human (endogenous in HepG2)) (UniProt Q16828); experiment: co-IP; DUSP6 antibody; PBLD-upregulated and control HepG2 cells after transfection with SKP2 plasmids; western blot of SKP2, DUSP6 and PBLD
T1 sequence: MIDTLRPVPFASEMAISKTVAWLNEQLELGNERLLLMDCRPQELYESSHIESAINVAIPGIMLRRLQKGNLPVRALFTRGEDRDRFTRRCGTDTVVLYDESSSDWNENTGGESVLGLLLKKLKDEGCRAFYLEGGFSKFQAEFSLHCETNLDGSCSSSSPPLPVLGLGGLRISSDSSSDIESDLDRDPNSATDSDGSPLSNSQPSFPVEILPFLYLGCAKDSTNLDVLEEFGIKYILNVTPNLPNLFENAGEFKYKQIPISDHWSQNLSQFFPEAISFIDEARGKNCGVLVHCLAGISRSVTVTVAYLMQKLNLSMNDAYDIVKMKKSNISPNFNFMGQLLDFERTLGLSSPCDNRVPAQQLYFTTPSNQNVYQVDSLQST

[2] = biological target: T1, DUSP6 (human (endogenous in HepG2)); experiment: co-IP; HepG2 cells lysed in cold NP-40 with protease and phosphatase inhibitors; antibody (2 ug) on protein A/G magnetic beads, incubated overnight at 4 °C; western blot; anti-rabbit IgG as negative control
[3] = biological target: TCF4 (human (endogenous in HepG2)) (UniProt P15884); experiment: as above

Measured: binding

B1: phenazine biosynthesis-like domain-containing protein (PBLD) (protein, UniProt P30039 1-288)
chain: MKLPIFIADAFTARAFRGNPAAVCLLENELDEDMHQKIAREMNLSETAFIRKLHPTDNFAQSSCFGLRWFTPASEVPLCGHATLASAAVLFHKIKNMNSTLTFVTLSGELRARRAEDGIVLDLPLYPAHPQDFHEVEDLIKTAIGNTLVQDICYSPDTQKLLVRLSDVYNRSFLENLKVNTENLLQVENTGKVKGLILTLKGEPGGQTQAFDFYSRYFAPWVGVAEDPVTGSAHAVLSSYWSQHLGKKEMHAFQCSHRGGELGISLRPDGRVDIRGGAAVVLEGTLTA
binds: all assays above
